The results in this text go back to PMC10987633, “Structural basis for RAD18 regulation by MAGEA4 and its implications for RING ubiquitin ligase binding by MAGE family proteins” (The EMBO Journal, 2024).

The chains behind the UniProt entries cited, without tags or fusion partners.
UniProt Q13263: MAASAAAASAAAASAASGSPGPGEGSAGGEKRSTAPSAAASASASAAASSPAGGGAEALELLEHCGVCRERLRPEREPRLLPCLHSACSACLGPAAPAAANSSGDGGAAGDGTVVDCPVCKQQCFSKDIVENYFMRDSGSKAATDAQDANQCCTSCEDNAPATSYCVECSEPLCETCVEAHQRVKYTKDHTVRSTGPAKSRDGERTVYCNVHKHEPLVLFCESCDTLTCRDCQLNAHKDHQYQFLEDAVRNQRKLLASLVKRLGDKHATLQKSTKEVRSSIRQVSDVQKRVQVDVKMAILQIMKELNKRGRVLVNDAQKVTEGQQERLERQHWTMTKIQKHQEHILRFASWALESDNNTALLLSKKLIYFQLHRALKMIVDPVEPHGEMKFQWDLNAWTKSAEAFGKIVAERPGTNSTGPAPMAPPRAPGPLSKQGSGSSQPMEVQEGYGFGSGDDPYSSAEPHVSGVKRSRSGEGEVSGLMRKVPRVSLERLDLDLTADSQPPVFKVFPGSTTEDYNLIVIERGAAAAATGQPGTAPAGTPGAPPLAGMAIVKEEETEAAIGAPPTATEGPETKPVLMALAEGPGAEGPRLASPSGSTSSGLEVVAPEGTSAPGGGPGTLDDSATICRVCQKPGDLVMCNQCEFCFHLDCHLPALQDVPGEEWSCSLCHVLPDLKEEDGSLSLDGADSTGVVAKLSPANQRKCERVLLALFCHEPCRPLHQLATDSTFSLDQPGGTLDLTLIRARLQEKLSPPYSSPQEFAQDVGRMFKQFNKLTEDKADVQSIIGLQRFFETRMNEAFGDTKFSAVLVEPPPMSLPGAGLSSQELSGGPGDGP

In assay [1] the target is T1, GFP-tagged MAGEC2 wild type (human) (UniProt Q9UBF1).
T1 sequence: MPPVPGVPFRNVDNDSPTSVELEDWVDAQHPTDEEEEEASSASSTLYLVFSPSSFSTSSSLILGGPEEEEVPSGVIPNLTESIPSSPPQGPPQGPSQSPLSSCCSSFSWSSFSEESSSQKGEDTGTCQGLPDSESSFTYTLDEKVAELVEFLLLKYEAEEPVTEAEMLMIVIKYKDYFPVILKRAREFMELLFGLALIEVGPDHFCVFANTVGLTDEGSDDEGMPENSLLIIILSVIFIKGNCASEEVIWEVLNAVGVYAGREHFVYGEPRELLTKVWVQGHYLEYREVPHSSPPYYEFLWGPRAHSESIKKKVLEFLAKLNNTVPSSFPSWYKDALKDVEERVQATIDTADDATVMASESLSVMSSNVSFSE
The experiment in a line: affinity purification with mass spectrometry; GFP-MAGEC2 WT or L318D expressed in HEK293T; 500 µg lysate (50 mM Tris pH 7.5, 150 mM NaCl, 1% Triton X-100) on GFP-Trap agarose 2 h at 4 °C; TMT quantitative mass spectrometry, WT against L318D, triplicate.

Assay [2] has as its target T2, GFP-tagged MAGEC2 L318D (human) (UniProt Q9UBF1).
T2 sequence: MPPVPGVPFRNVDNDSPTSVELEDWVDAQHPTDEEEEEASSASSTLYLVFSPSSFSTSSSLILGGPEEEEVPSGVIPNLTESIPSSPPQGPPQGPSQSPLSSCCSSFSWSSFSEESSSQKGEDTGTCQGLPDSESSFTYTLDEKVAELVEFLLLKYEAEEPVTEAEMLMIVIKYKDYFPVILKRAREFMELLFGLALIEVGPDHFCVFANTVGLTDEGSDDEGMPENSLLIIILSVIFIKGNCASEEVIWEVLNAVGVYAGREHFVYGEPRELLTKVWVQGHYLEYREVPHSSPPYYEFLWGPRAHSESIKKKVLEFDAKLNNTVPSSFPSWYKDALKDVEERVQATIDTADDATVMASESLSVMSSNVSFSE
The assay is described as above.

These are yes or no findings as the source states them, for the method shown. Binding seen in cells or lysates may run through a third protein. A yes stands for co-enrichment or nearness to the bait. Other partners may have been found. For some of these results: A no says only that the protein was not detected with the bait. Tags and fused reporters may be left off the sequences shown.

With “Tripartite motif-containing protein 28 (TRIM28), endogenous (from UniProt Q13263 1-835) (enzyme)”, the binding entry was “binds” in assay [1] and “no binding” in assay [2].

B1: MAGEB2 (protein, UniProt O15479 1-319)
chain: MPRGQKSKLRAREKRRKARDETRGLNVPQVTEAEEEEAPCCSSSVSGGAASSSPAAGIPQEPQRAPTTAAAAAAGVSSTKSKKGAKSHQGEKNASSSQASTSTKSPSEDPLTRKSGSLVQFLLYKYKIKKSVTKGEMLKIVGKRFREHFPEILKKASEGLSVVFGLELNKVNPNGHTYTFIDKVDLTDEESLLSSWDFPRRKLLMPLLGVIFLNGNSATEEEIWEFLNMLGVYDGEEHSVFGEPWKLITKDLVQEKYLEYKQVPSSDPPRFQFLWGPRAYAETSKMKVLEFLAKVNGTTPCAFPTHYEEALKDEEKAGV
For B1, the results for the binding result in assay [1] and in assay [2] were “binds” and “no binding”, respectively.
